Reference: patent US7994311B2, “Fluorescent chemosensors for metals based on dipyrrins” (priority 2006, dated 2011)

Test: Fluorescence quantum yield of dipyrrins, free and with Zn^2+
Conditions: for increase of fluorescence quantum yield upon binding Zn^2+: Zn^2+ complex over free ligand; for fluorescence quantum yield (ΦF): excitation 432 nm, reference perylene in toluene
Text: The conjugated (2) comprises a fluorophore with the […] moiety behaving as an ionphore. Benzaldehyde was used to form (2) because the properties shown by this type of sensing molecule with an benzene ring are representative of the general behavior of the family of compounds. In spite of the low fluorescence quantum yields of benzene, substituting benzene (ΦF=0.05±0.02) with a more intrinsically luminescent unit can make a great improvement in ΦF. An examples of another aromatic entity used instead of benzene is anthracene (ΦF0.27±0.03). When a […] attached to the benzene ring, the fluorescence quantum yield (ΦF) of (2) was very low and was determined to be 0.0011 due to the photo-induced electron transfer (PET), which is the intra-molecular quenching mechanism of an enamine group and an imine group in conjugate. When Zn^2+ bound with a […] moiety, PET was hindered and fluorescence emission intensity was recovered. […] Zn^2+, the fluorescence quantum yield was determined to be 0.07. […] (2), (3) and (4). The excitation wavelengths were 432, 475, 450 nm. The emission wavelengths were 496, 612, 497 and 599 nm for (2), (3) and (4). The ratio of fluorescence quantum yield [fluorescence quantum yield of metal ion/(2), (3) or (4) complex over fluorescence quantum yield of free ligand (10 μM)] was measured in acetonitrile.

SMILES	increase of fluorescence quantum yield upon binding Zn^2+ [fold]	fluorescence quantum yield (ΦF) (after addition of 50 equiv. Zn^2+)	fluorescence quantum yield (ΦF) (free ligand)
C1=CC(=C(c2ccc[nH]2)c2ccc3ccc4cccc5ccc2c3c45)N=C1 [(4), 1-pyrenyldipyrrin]	68.2		
C1=CC(=C(c2ccccc2)c2ccc[nH]2)N=C1 [Compound (2), 5-phenyl-4,6-dipyrrin]	65.7	0.07	0.0011
